Data on 62 compounds can be found in PubChem BioAssay AID2685 (National Center for Advancing Translational Sciences (NCATS), 2010).

The test in a line: qHTS Assay for Lipid Storage Modulators in Drosophila S3 Cells.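 On cell number change: cells counted by Cell Tracker Red CMTPX staining in the red channel.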 As to conditions: BODIPY lipid droplet fluorescence, 18-24 h; for cell number change: measured here: cell count max response, cells fed with added oleic acid. An outline of the steps: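 Drosophila S3 cells loaded with oleic acid (400 uM, as added) and compounds at several concentrations; lipid droplets imaged by 488-nm laser-scanning cytometry, 500–530 nm intensity and object ratio to cell channel. Percent activity normalized to 20 uM Triacsin C.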
(Quantitative high-throughput screening tests each substance at several concentrations.)

The mark [1] stands for this setting: measured here: cell number channel AC50, cells fed with added oleic acid.
Where [2] appears, read: measured here: lipid fluorescence (Fed channel) AC50, cells fed with added oleic acid.

This is one part of the list. These are further read-outs of the screen, such as a control signal, another cell line or another target. No call is given for them. The list favours compounds with an active or inconclusive main result. The note in brackets gives the kind of curve behind each potency; many fits are weak.

As to `COc1cc(C(=O)NC2=NCCS2)cc(OC)c1OC`, the half-maximal activity concentration (AC50) (commonly the midpoint of the concentration-response curve, whichever way the signal moves) by setting is: under setting [1], 2.06 µM [rising, partial curve, poor fit]; under setting [2], 4.11 µM [rising, partial curve, poor fit].

`Cc1cc(C)cc(Oc2ccccc2CO)c1`: the AC50 under setting [2] is 6.51 µM [rising, single point].

For the compound `Cc1ccc(C(=O)Nc2nc(-c3ccccn3)cs2)cc1S(=O)(=O)N1CCOCC1`, the cell number change is -5.1%. Further, under setting [1], the AC50 is 2.06 µM [rising, partial curve, poor fit]. The concentration at half-maximal activity (AC50) under setting [2] is 2.59 µM [falling, full curve].

Turning to `COc1cccc(-c2nn(-c3ccccc3)cc2C(=O)Nc2nccs2)c1`, the AC50 under setting [1] was 0.651 µM [rising, full curve] and the half-maximal activity concentration (AC50) under setting [2] was 1.46 µM [rising, partial curve].

Regarding `Cc1nc(SCC(=O)Nc2ccc3c(c2)OCCO3)c2oc3ccccc3c2n1`, the cell number change was determined as 21.1%. For the same compound, the half-maximal activity concentration (AC50) under setting [2] is 7.31 µM [rising, single point].

As for `CCCCn1c(N)c(N(Cc2ccccc2OC)C(=O)CSCC(=O)Nc2cccc(C)c2)c(=O)[nH]c1=O`, the cell number change is -12.7%. For the same compound, the AC50 under setting [2] is 6.51 µM [rising, single point].

For the compound `Cc1ccc(-n2c(N)cc(=O)nc2SCC(=O)N2CCN(c3ccccc3)CC2)cc1C`, the cell number change was 20.5%. The concentration at half-maximal activity (AC50) under setting [2] is 20.6 µM [rising, partial curve].

`O=C(O)c1cccc(NS(=O)(=O)c2ccc3c4c(cccc24)C(=O)N3)c1`: the cell number change was determined as 3.97%. In addition, the AC50 under setting [2] is 29.1 µM [rising, single point].

With `CCN(CC)CCCNC(=O)CCn1nc(-c2ccc(Cl)cc2)ccc1=O`, the cell number change was -12.1%.

Take `O=[N+]([O-])c1ccccc1COc1ccc(Cl)c2cccnc12`: the cell number change turned out to be 5.93%. The AC50 under setting [2] was 0.461 µM [rising, partial curve].

Regarding `COc1cc(/C=C/C(=O)NCCc2ccc(S(N)(=O)=O)cc2)ccc1OCC#N`, the cell number change is 13.5%. The AC50 under setting [2] was 16.4 µM [rising, partial curve, poor fit].

Take `CC1(C)C(=O)Nc2ccccc2N1C(=O)COC(=O)C1CCCCC1`: the cell number change stood at 6.45%. The AC50 under setting [2] was 0.0651 µM [falling, full curve, poor fit].

As to `c1ccc([C@H]2CN3CCSC3=N2)cc1`, the cell number change was -58.1%. In addition, the concentration at half-maximal activity (AC50) under setting [1] was 29.1 µM [falling, single point]. Besides, under setting [2], the AC50 is 25.9 µM [falling, single point].

For the compound `CCn1c(SCC(=O)Nc2ccc(NC(C)=O)cc2)nnc1C1CC1`, the cell number change is -11.3%. Moreover, under setting [2], the AC50 is 0.164 µM [rising, full curve].

Consider `COc1ccc(-c2oc3ncn4nc(COc5ccccc5)nc4c3c2-c2ccc(OC)cc2)cc1`, for which the cell number change turned out to be 10.7%. In addition, the AC50 under setting [2] was 0.0206 µM [rising, full curve, poor fit].

For the compound `COc1cc(/C=N/NC(=S)Nc2cccc(Cl)c2C)ccc1OCC(=O)N1CC(C)OC(C)C1` (stereo not given), the cell number change was -15.2%. The half-maximal activity concentration (AC50) under setting [2] is 29.1 µM [falling, single point].

In the case of `COC(=O)C1CCN(S(=O)(=O)c2c(C)n(C)c(=O)n(C)c2=O)CC1`, the cell number change was -122%. Further, the AC50 under setting [1] is 20.6 µM [falling, partial curve]. Further, the AC50 under setting [2] is 29.1 µM [falling, single point].

As for `COc1ccc(C(CNC(=S)NCc2ccccc2)N2CCCC2)cc1` (stereo not given), the cell number change is 0.82%.

As to `O=C(C1CC=CCC1)N1CCN(C(=O)C2CC=CCC2)CC1` (stereo not given), the cell number change is 22.3%. Besides, the AC50 under setting [2] was 23.1 µM [rising, single point].

`COc1cc(CC(NC(C)=O)C(=O)NC2CCN(C(=O)Nc3ccc(C)cc3)CC2)cc(OC)c1` (stereo not given): the cell number change is -41%. For the same compound, under setting [2], the AC50 was 0.291 µM [rising, partial curve].

On to `Fc1ccc(CSc2nnc(-c3cccnc3)n2Cc2ccco2)cc1`, for which the cell number change was found to be 5.76%.

As for `O=C(CN(C(=O)CCC(=O)Nc1ccccn1)C1CCCC1)NCc1ccc(F)cc1`, the cell number change amounted to 17.1%. Under setting [2], the AC50 was 29.1 µM [falling, single point].

As for `Cc1cc(C)c2ccc(=S)[nH]c2n1`, the cell number change was 51.2%. Under setting [2], the half-maximal activity concentration (AC50) is 0.326 µM [rising, partial curve, poor fit].

Consider `Cc1cc(=O)c(C(=O)O)nn1-c1ccc(Cl)cc1`, for which the cell number change worked out at 8.76%. Besides, the AC50 under setting [2] was 4.11 µM [rising, single point].

Take `CC1CCCCN1C(=S)NC(=O)c1cccs1` (stereo not given): the cell number change was -13.6%. The AC50 under setting [2] was 6.51 µM [falling, single point].

As to `Cc1ccc(/C=C/C(=O)c2ccc(O)cc2)cc1`, the cell number change is -28.6%. For the same compound, the half-maximal activity concentration (AC50) under setting [2] was 29.1 µM [falling, single point].

In the case of `CN1C(=O)C(CCC(=O)O)NC1=S` (stereo not given), the cell number change amounted to 0.12%. For the same compound, under setting [2], the half-maximal activity concentration (AC50) is 1.3 µM [falling, full curve, poor fit].

In the case of `COc1cc(/C=N/NC(=O)c2ccncc2)c([N+](=O)[O-])cc1OC`, the cell number change worked out at 14.3%.

For the compound `O=C(COC(=O)c1ccc(O)cc1)NCC1CCCO1` (stereo not given), the cell number change is 10.4%. The AC50 under setting [1] was 0.651 µM [falling, single point].

Turning to `COc1ccc(-c2csc(NC(=O)CSCc3c(C)noc3C)n2)c(OC)c1`, the cell number change is 2.04%. The AC50 under setting [2] is 0.00461 µM [falling, full curve, poor fit].

`CCN(CC)C(=O)CCc1nc2sc3c(c2c(=O)[nH]1)CCCC3`: the cell number change is 30.7%. Further, the AC50 under setting [2] is 0.731 µM [falling, full curve].

Turning to `CC1(C)CC2CC(C)(CN2S(=O)(=O)c2cccc(C(N)=O)c2)C1` (stereo not given), the cell number change stood at 12.9%. The AC50 under setting [2] is 18.4 µM [rising, single point].

In the case of `CCCC(C)C(=O)Nc1ccc(S(=O)(=O)N2CCCC2)cc1` (stereo not given), the cell number change stood at 13%. Moreover, the AC50 under setting [2] is 29.1 µM [falling, single point].

With `CCCC(=O)Nc1c(C(=O)OCC)[nH]c2ccccc12`, under setting [1], the concentration at half-maximal activity (AC50) was 0.103 µM [falling, full curve, poor fit].

With `COCCn1c(SCC(=O)Nc2nnc(C)s2)nnc1-c1ccco1`, the cell number change is 15.8%.

Regarding `Cc1cc(C)n(CC(=O)Nc2ccc3c(c2)OCO3)c(=O)c1C#N`, the cell number change is -11.6%. Also, the half-maximal activity concentration (AC50) under setting [2] is 20.6 µM [rising, single point].

In the case of `O=C(COC(=O)c1ccccc1O)NNC(=O)c1ccc(Br)cc1`, the cell number change was 7%.

As to `O=C(Nc1ccc(F)cc1)c1ccc2c(=O)n3c(nc2c1)CCCCC3`, the cell number change was -0.865%. In addition, the AC50 under setting [2] is 25.9 µM [falling, single point].

Consider `CC(=O)Nc1cccc(NC(=O)CSc2nccn2Cc2ccc(F)cc2)c1`, for which the cell number change stood at 32.5%. Under setting [1], the concentration at half-maximal activity (AC50) is 4.47 µM [rising, full curve, poor fit]. For the same compound, the AC50 under setting [2] is 35.5 µM [rising, single point].

For `Cc1ccc(-c2nnc(CSc3nnc4c5c(C)c(C)sc5nc(C(C)C)n34)o2)cc1`, the cell number change stood at 3.04%. The AC50 under setting [1] is 0.651 µM [rising, full curve, poor fit]. In addition, the AC50 under setting [2] is 2.91 µM [rising, single point].

As for `COc1ccc(C)cc1N(C(=O)c1ccc(C#N)cc1)C1=NC(C)(C)CS1`, the cell number change is 21.6%.

Turning to `COc1ccccc1N1C(=O)C2C(c3ccc(F)cc3)NN(C(=O)c3ccc(C)cc3)C2C1=O` (stereo not given), the AC50 under setting [1] is 3.26 µM [rising, single point].

On to `COc1ccc(NC(=O)CSc2ccc(-c3ccco3)nn2)cc1`, for which the cell number change was determined as 2.37%. Moreover, the AC50 under setting [2] is 4.61 µM [rising, partial curve, poor fit].

For `CC12C(=O)N(Cc3ccco3)C(=O)C1C1c3ccccc3C2c2ccccc21` (stereo not given), the cell number change is 9.08%.

On to `CCOc1ncccc1C(=O)N1CCN(C(c2ccccc2)c2ccccc2)CC1`, for which the cell number change is -15.4%. Under setting [2], the concentration at half-maximal activity (AC50) is 20.6 µM [rising, single point].

For the compound `Oc1ccccc1/C=N/NC1=NCCCCC1`, the cell number change is -2.68%. Besides, the concentration at half-maximal activity (AC50) under setting [1] is 2.31 µM [rising, single point].

For the compound `O=C(Oc1ccc(Br)cc1C(=S)N1CCCCC1)c1cc([N+](=O)[O-])cc([N+](=O)[O-])c1`, the cell number change was found to be 17.1%. Further, the half-maximal activity concentration (AC50) under setting [2] was 0.082 µM [falling, full curve, poor fit].

As to `Cc1nc2sc(C(c3ccccc3)N3CC(C)OC(C)C3)c(O)n2n1` (stereo not given), the cell number change was -7.17%. Also, under setting [2], the AC50 is 6.51 µM [falling, single point].

Take `COc1ccc(COCC(O)CN2CCC(C(N)=O)CC2)cc1` (stereo not given): the cell number change was -4.89%. The AC50 under setting [2] is 1.46 µM [falling, full curve].

`O=C(NCc1ccccn1)c1cnc2sccn2c1=O`: the cell number change was 3.22%. Moreover, under setting [2], the concentration at half-maximal activity (AC50) is 0.13 µM [falling, full curve, poor fit].

Turning to `CCCCn1c(N)c(N(CCC(C)C)C(=O)c2[nH]c(C)c(C(=O)OCC)c2C)c(=O)[nH]c1=O`, the cell number change amounted to 20%.

With `CC1CCc2[nH]c3ccc(C(=O)N(C)CC(=O)Nc4ccccc4Cl)cc3c2C1` (stereo not given), the cell number change was found to be 0.524%. Besides, the AC50 under setting [2] was 2.91 µM [rising, full curve, poor fit].

Regarding `Cc1noc(C)c1S(=O)(=O)N1CCCC(C(=O)c2cccc(OC(C)C)c2)C1` (stereo not given), the cell number change amounted to 16.6%. Also, under setting [2], the AC50 is 2.59 µM [rising, single point].

For the compound `CN(C(=O)COC(=O)c1n[nH]c2ccccc12)c1ccccc1`, the cell number change came to 19.4%. For the same compound, the AC50 under setting [2] is 0.461 µM [rising, full curve, poor fit].

With `COc1ccc(Br)cc1CN1CCCCCC1`, the cell number change stood at 19.4%. Moreover, the AC50 under setting [2] is 29.1 µM [rising, single point].

As for `CC(=O)Nc1ccc(-c2csc(NC(=O)Cc3ccccc3F)n2)cc1`, the cell number change was -26.3%. Also, the concentration at half-maximal activity (AC50) under setting [2] was 1.12 µM [falling, partial curve].

Regarding `O=C(CSC(=S)N1CCCC1)NCC(=O)Nc1ccccc1Br`, the cell number change came out at 5.22%.

As to `CN(C)CCNC(=O)Cn1ccc2cc(S(=O)(=O)N3CCCCCC3)ccc21`, the cell number change was determined as 13.7%. Also, the AC50 under setting [2] was 29.1 µM [rising, single point].

Take `O=C(Nc1ccc(C(=O)N2CCCCC2)cc1)C1CCCCC1`: the cell number change is -15.9%.

For the compound `CCN(CC(=O)Nc1c(F)cccc1F)C(=O)C1CCCN(C(=O)c2ccc(Cl)cc2)C1` (stereo not given), the cell number change was 20%. Further, under setting [2], the AC50 was 0.116 µM [falling, full curve, poor fit].

For `Cc1nn(C)c(C)c1/C=C/C(=O)c1ccc(Cl)cc1Cl`, the cell number change is -27.4%. For the same compound, the AC50 under setting [2] is 20.6 µM [falling, single point].

As for `COC(=O)[C@H]1C[C@@H]1[C@H](NS(=O)(=O)c1ccc2ccccc2c1)c1ccccc1`, the cell number change turned out to be 5.14%. Further, the concentration at half-maximal activity (AC50) under setting [2] is 0.092 µM [rising, partial curve, poor fit].
